Data taken from ChEMBL document CHEMBL3988442, “University of Dundee, Small-Polar-MMV Screening Library” (2021).

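Assay of Toxoplasma gondii numbers, read through their beta-galactosidase reporter with a colour substrate. Compounds at 10 µM. The record gives no direction; the compounds picked for IC50 retests had high values, so higher reads as fewer parasites. Size under these conditions: about 67,000 compounds, about 260 of them at 50% or above in at least one test.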

Results are given as percent effect.
The record does not define 0% and 100%; most values in the screen are far below 50% and negative numbers occur (in some assays of this library far below -100).
This is an unselected part of the compounds tested.

compound,effect
CC(C)n1ccnc1CN1CCCN(C(=O)c2cnn(C)c2)CC1,-3.208
O=C(O)C(F)(F)F.[H][C@@]12CO[C@@H](CNS(C)(=O)=O)[C@]1([H])CCN(Cc1ccsc1)C2,-2.748
[H][C@]12CC[C@]([H])(CN(C(=O)c3ccccn3)C1)N(C(=O)CCC1CCCC1)C2,-5.921
COC(=O)C1CCN(C(=O)c2cccc(NS(C)(=O)=O)c2C)CC1,-3.569
CC(C)N1CC2(CCC1=O)CCN(C(=O)c1cccc(F)c1F)CC2,3.38
Cc1cc(N2CCN(c3nc4ccccc4cc3CO)CC2)nc(C)n1,5.266
COc1cccc(N2CC3(CCN(c4cc(OC)ncn4)C3)CC2=O)c1 (configuration not stated),3.386
CC1(C(=O)NCCN2CCCCC2)CCCN1C(=O)c1ccccc1 (configuration not stated),7.769
COc1cc(F)ccc1C(C(=O)O)N(C)Cc1ccon1 (configuration not stated),0.7299
COc1ccnc(NC(Cc2ccccc2)C(N)=O)n1 (configuration not stated),2.747
Cc1ncsc1CCN(C)C(=O)C(c1cccnc1)N1CCOCC1 (configuration not stated),-1.222
COc1ccc(-c2noc([C@@H]3C[C@@H](O)CN3C3CCOCC3)n2)cc1,-3.792
Cc1ncnc2c1CCN(c1cc(C(F)(F)F)ncn1)CC2,-5.342
O=C(O)C(F)(F)F.O=C(O)C(F)(F)F.[H][C@]12CCN(Cc3ccccn3)[C@@]1([H])CC[C@H](COCC1CCOCC1)O2,0.2773
O=C(O)C(F)(F)F.[H][C@@]12CN(Cc3csc(C)n3)CCO[C@]1([H])CN(C(=O)CC1CC1)C2,-0.7729
CC[C@@H]1N(Cc2nccs2)CCC[C@]12CCC(=O)N2CCOC.O=C(O)C(F)(F)F,10.1
CC(NC(=O)NCCNc1cccc(F)c1C#N)c1nccs1 (configuration not stated),-30.85
[H][C@]12CN(C(=O)OC)CCN1C[C@H](CO)[C@H]2c1ccccc1,13.17
COc1ccc(C)cc1CN1CCOC(Cn2nc(C)nc2C)C1 (configuration not stated),-2.782
CS(=O)(=O)c1snnc1C1CCN(Cc2ccc3nccnc3c2)CC1,14.84
CC(NCC1CCN(CCO)CC1)c1cccc(Cl)c1 (configuration not stated),12.68
CCCn1nc2c(cc1=O)CN(CCCN1CCCC1=O)CC2,-1.206
O=C(O)C(F)(F)F.[H][C@@]12CN(C(=O)Cc3cccs3)C[C@]1([H])OCCN2CC1CCCO1 (some centres not stated),21.01
NC(=O)CC1CCN(C(=O)NCc2ccccc2-n2cccn2)CC1,7.773
Cc1nc(C)n(CC2CCCN(Cc3cccc(C(N)=O)c3)C2)n1 (configuration not stated),-3.997
CN(C)C(=O)CN1CC=C(c2cnn(Cc3ccccc3)c2)CC1,-22.41
CC(c1nc(C2CC2)no1)N1CCN(CCN2CCCC2=O)CC1 (configuration not stated),-19.83
Cc1ccc(S(=O)(=O)N2CCC(S(C)(=O)=O)CC2)cc1C,24.09
CC(C)S(=O)(=O)N1CCCC(c2nccn2Cc2cccnc2)C1 (configuration not stated),0.4142
CCc1c(C)n(CC(=O)OC)c2nc3ccccc3n2c1=O,-2.756
Cc1ccccc1N1CCN(C2CCCN(C(=O)CCC(C)C)C2)CC1 (configuration not stated),-6.64
c1cn(CCc2c[nH]cn2)c(-c2cc(CN3CCCC3)cs2)n1,-3.97
O=C(O)C1(n2ccc(-c3ccco3)n2)CCN(Cc2ccsc2)CC1,-36.55
CCc1c(C)nn2c(O)cc(C3CCN(C(=O)c4ccccn4)C3)nc12 (configuration not stated),4.686
Cc1cc(C)n(-c2ccccc2NC(=O)NCCCN(C)S(C)(=O)=O)n1,1.949
Cn1nc(C2CN(C(=O)c3cccnc3)C2)c2nccnc21,-9.777
CCC1CN(C(=O)c2[nH]nc(C)c2Br)CCO1 (configuration not stated),6.768
CC(C)CN1C(=O)CC(N2CCN(c3ccc(F)cc3)CC2)C1=O (configuration not stated),1.42
Cc1cc(C)c2c(c1)C(NCc1nnc3n1CCC3)CCCO2 (configuration not stated),4.794
COCCO[C@H]1CCN(C(=O)c2ccno2)[C@H]1Cc1ccncc1.O=C(O)C(F)(F)F,20.09
CC(=O)c1cccc(NC(=O)CN2CCCC(C3OCCO3)C2)c1 (configuration not stated),1.876
O=C(CCCn1cccn1)N1C[C@@H](O)[C@H](Oc2cccc(F)c2)C1,-69.92
CNc1snc(C)c1C(=O)N1CCCC(n2ccnc2)C1 (configuration not stated),-7.369
CCc1nnc2n1CCN(C(=O)c1cc(Cl)c[nH]1)C2,-3.946
O=S(=O)(c1cn[nH]c1)N1CCCC(O)(CN2CCOCC2)CC1 (configuration not stated),0.9248
CCN(c1ccc(C(=O)N2CCCC2c2cnn(C)c2)cn1)C(C)C (configuration not stated),35.93
COc1ccc(CNC(=O)c2ccc(=O)n(C)c2)cc1C,-0.8409
CSC(C)(C)CNC(=O)NC1CCN(C)CC1,-4.736
CNC(=O)c1cn(C(C)(C)C)c2ncccc12,-0.02689
CN(C)Cc1ccnc(C2CCCN2Cc2cccc(F)c2F)n1 (configuration not stated),10.9
O=C(O)C(F)(F)F.[H][C@@]12CCCO[C@]1([H])[C@H](N(C)Cc1ccco1)CN(C(=O)N(C)C)C2,16.64
Cc1cccc(C(=O)N2CCn3cnc(COCC4CC4)c3C2)c1,3.386
COc1ccccc1CC(NC(=O)N1CCOCC1)C(C)C (configuration not stated),5.305
CCCc1nc(C(C)(C)NC(=O)C2CC(=O)N(CC)C2)no1 (configuration not stated),-5.967
Cc1cnn(CC2CCCN2C(=O)Cc2c(C)nc(C)[nH]c2=O)c1 (configuration not stated),-1.807
CN1CCCC2(CCN(Cc3cncn3C3CCCCC3)C2)C1=O (configuration not stated),-19.45
O=C(CS(=O)(=O)C1CCCC1)NC(c1ccc(F)cc1)C1CC1 (configuration not stated),-10.09
CC(NC(=O)NCCN1CCCCCC1=O)c1nncn1C (configuration not stated),3.231
Clc1ccc(NCc2nnc(C3CC3)o2)cc1Cl,-9.425
COc1ccccc1C1(CNCc2cccc(O)c2)CCOCC1,12.58
CN1C(=O)CC(c2ccccc2)C12CCN(CC1CC1)CC2.O=C(O)C(F)(F)F (configuration not stated),-6.398
Cc1nn(C)c(N(C)C)c1CNCc1cccc(CN(C)C(C)C)c1,6.326
c1nc(N2CCOCC2)nc2c1COCC21CCN(CC2CC2)C1 (configuration not stated),63.85
CN1CCC(c2cccc(CCC(=O)NCC(N)=O)n2)CC1,-11.09
CCNc1ncc(C)c(-c2cnn(C)c2)n1,-14.71
Cc1ncsc1CCN(C)C(=O)CN1CCCCCC1=O,5.932
O=C1CCCc2cc(S(=O)(=O)NCc3ccccn3)ccc2N1,-2.589
OCCN(Cc1ccccc1)Cc1ccsc1,-1.207
[H][C@]12CC[C@]([H])(CN(c3ncccn3)C1)N(Cc1ccc(NC(C)=O)cc1)C2,22.03
[H][C@]12CCN(C(=O)NCc3ccccc3)C[C@@]1([H])OCCN(CC)C2,13.59
COc1cncc(-n2nc(C)c(CC(C)=O)c2C)c1,3.262
Cc1cccc(-c2nc(C)nn2CN2CCN(c3ncccn3)CC2)c1,8.587
Cc1ccnc(OCC(=O)N2CCCC2)n1,7.984
Cc1nc(C2CCCN2CCOCC2CC2)no1 (configuration not stated),9.341
Nc1ccc(-c2ccc(F)cc2Cl)cn1,5.239
CCn1ccnc1CN1CCC(CNC(=O)c2ccc(C)nc2)C1 (configuration not stated),17.97
COc1ccc(CNC(=O)C2(C#N)CCCC2)cc1,-4.653
O=C(C1CC=CC1)N1CCC2(CCC(=O)N2Cc2cccc(F)c2)CC1,1.355
CNc1ncc2c(n1)CN(CCc1ccccc1)C2=O,-25.26
CNC(=O)CS(=O)(=O)C1CCN(S(=O)(=O)c2ccccc2Br)CC1,-0.2189
Cn1nnc2c1CCN(C(=O)CC1CC1)C2COCCN1CCCC1 (configuration not stated),-2.535
Cc1nc(C)n(CC2CCCN2Cc2nc3ccccc3o2)n1 (configuration not stated),0.5271
Cn1nnc2c1CCN(Cc1ccco1)C2COCc1ccccc1.O=C(O)C(F)(F)F (configuration not stated),-8
[H][C@]12CN(CC3CCC3)C[C@@]1(C(=O)O)CN(C(=O)c1cnccc1C)C2,12.55
Cc1cc(CN(C)C(=O)CN2CCCCCC2=O)no1,1.842
CCN(CC)S(=O)(=O)c1ccc(CNC(=O)N2CCC(C#N)CC2)cc1,1.628
CC(=O)N1CCCC(C(=O)N2CCN(Cc3cc(C)on3)CC2)C1 (configuration not stated),6.827
CN1CCCN(c2ccc(F)cc2CNC(=O)c2ccsc2)CC1,7.771

The first 6 entries again:

| compound | effect |
|---|---|
| `CC(C)n1ccnc1CN1CCCN(C(=O)c2cnn(C)c2)CC1` | -3.208 |
| `O=C(O)C(F)(F)F.[H][C@@]12CO[C@@H](CNS(C)(=O)=O)[C@]1([H])CCN(Cc1ccsc1)C2` | -2.748 |
| `[H][C@]12CC[C@]([H])(CN(C(=O)c3ccccn3)C1)N(C(=O)CCC1CCCC1)C2` | -5.921 |
| `COC(=O)C1CCN(C(=O)c2cccc(NS(C)(=O)=O)c2C)CC1` | -3.569 |
| `CC(C)N1CC2(CCC1=O)CCN(C(=O)c1cccc(F)c1F)CC2` | 3.38 |
| `Cc1cc(N2CCN(c3nc4ccccc4cc3CO)CC2)nc(C)n1` | 5.266 |